## Percent effect of library compounds

Data taken from ChEMBL document CHEMBL3988442, “University of Dundee, Small-Polar-MMV Screening Library” (2021).

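Assay of Toxoplasma gondii numbers, read through their beta-galactosidase reporter with a colour substrate. Compounds at 50 µM. The record gives no direction; the compounds picked for IC50 retests had high values, so higher reads as fewer parasites. Size under these conditions: about 18,000 compounds, about 170 of them at 50% or above in at least one test.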

The filed quantity is “Percent Effect” (%).
How 0% and 100% were set is not recorded. Most values in the screen are low, and negative values occur.
This is an unselected part of the compounds tested.

With CN1CCN(S(=O)(=O)c2cccc3nonc23)CC1 the screen gave -13.88%. With Cc1cccc(CN2CCNCC2CCO)n1 (stereo not shown) the screen gave -13.6%. With Nc1ccnc(-c2ccc(CO)cc2)c1 the screen gave 2.387%. For CC1(C#N)CCCN(C(=O)Cc2ccccc2O)C1 (stereo not shown) the result was 0.5962%. CC(NC(=O)C(C)(C)C)c1ccc(S(C)(=O)=O)cc1 (stereo not shown) gave 5.01%. For CCc1csc(CNC(C)Cn2cncn2)n1 (stereo not shown) the result was -2.879%. For CN1CCN(CC(O)CN(C)Cc2ccncc2)CC1 (stereo not shown) the result was -0.8529%. CC(C)C(=O)CNC(=O)C(C)c1cccnc1 (stereo not shown) read -14.44%.

COC(CN)C1CC1 (stereo not shown) read -1.247%. Result for Cc1cc(C)nc(NC(=O)c2cc[nH]n2)c1 was -8.278%. Result for O=C(c1cn2ccsc2n1)N1CC=CC1CO (stereo not shown) was -0.2619%. For CC(C)(C)NC(=O)CNC(=O)c1cccc2cn[nH]c12 the result was -11.6%. With CCN(CC)CCNC(=O)c1cc(C2CC2)[nH]n1 the screen gave -7.673%. For CC1CCCN(CCNS(=O)(=O)CCCS(C)(=O)=O)C1 (stereo not shown) the result was 12.53%. Result for c1cc2c(cc1-c1nc3c([nH]1)CCNC3)OCO2 was -3.346%. Result for CCOc1c(OC)cc(CN)cc1OC was -2.331%.

CCC(O)CN1CCN(CC2CCOCC2)CC1 (stereo not shown) read 8.721%. With COc1ccccc1C(=O)Nc1c(C)n[nH]c1C the screen gave -15.06%. For CCOc1ccccc1C(=O)N1CCC(O)CC1 the result was -3.622%. For O=C(CSCc1ccncc1)NCc1c[nH]nn1 the result was -0.6537%. CN(CC(=O)NC1CCS(=O)(=O)C1)c1ccc(F)cc1 (stereo not shown) read -30.37%. CCN(C)S(=O)(=O)N(CC)CC(O)c1ccc(C)cc1 (stereo not shown) read 6.094%. COc1cccc(CNc2ccccn2)c1O read -1.888%. O=C1NCCCC1O (stereo not shown) gave 24.46%.

With CCN1C[C@H](NC(=O)c2cccn2C(C)C)[C@@H](OC)C1 the screen gave -5.083%. CC1CN(c2nccc(N(C)C)n2)CCS1(=O)=O (stereo not shown) gave -6.273%. CCS(=O)(=O)N1CCN(c2ccc(OC)cc2)C(=O)C1 read -19.77%. With NC(=O)c1cc2c(cc1Br)OCO2 the screen gave -7.99%. With Cc1cccc(OCCNS(C)(=O)=O)c1 the screen gave -2.682%. NS(=O)(=O)N(Cc1cccs1)C1CC1 gave -3.025%.